{"source": "PubChem BioAssay AID1347075", "about": "(National Center for Advancing Translational Sciences (NCATS), 2019)", "note": "The campaign covered roughly 400,000 compounds. About 5,500 (1.4%) were called active. The inconclusive results got no clear call from the source; some entries with a clear call stand among them for comparison. Calls follow the shape of the dose curve; as a rule, active = well fitted cell-killing curve with a large enough effect; inconclusive = small, poorly fitted or top-dose-only effect, or effect the other way; inactive = flat fitted curve, though single readings scatter. A potency beside an inconclusive call is a rough fit, not a confirmed value. % is scaled to controls: 0 for no effect and ±100 for the full control effect; potency is read from the fitted curve at half-maximal effect.", "data": [{"assay": "qHTS assay for MDR1-selective chemotherapeutics: Primary screen using the parental adenocarcinoma cell KB-3-1; also: nearly all actives have a fitted effect of over 60% in size", "conditions": "KB-3-1 viability, CellTiter-Glo ATP luminescence, 72 h; activity change, negative = cytotoxic: at 46.1 µM (top of the series)", "method_in_brief": "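Parental KB-3-1 adenocarcinoma cells in phenol-red-free DMEM with 10% FBS were pin-treated with compounds at several concentrations, incubated 72 h at 37 °C, and viability read by CellTiter-Glo luminescence; concentration-effect curves were fitted after normalization.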", "values": [{"smiles": "O=C(Nc1cccc(S(=O)(=O)N2CCCCC2)c1)c1ccc(OCC2CCCO2)cc1", "note": "(stereo not given)", "Potency": "inactive"}, {"smiles": "Cc1c(-c2nc3ccccc3[nH]2)cnn1C", "Potency": "inconclusive: 3.26 µM [rising, full curve]"}, {"smiles": "Cc1ccc(Cl)cc1NC(=O)c1cccc(OC(F)F)c1", "Potency": "inactive"}, {"smiles": "Cc1ccc(S(=O)(=O)CC(C)(O)CS(=O)(=O)c2ccc(C)cc2)cc1", "Potency": "inactive"}, {"smiles": "O=C(N/N=C/c1c(Cl)cccc1Cl)c1n[nH]c2c1CCCC2", "Potency": "inactive"}, {"smiles": "Cc1ccc(NC(=O)C2CCN(C(=O)c3cnn(-c4ccccc4)c3-n3cccc3)CC2)cc1Cl", "Potency": "inconclusive: 23.1 µM [cytotoxic, single point]"}, {"smiles": "Cc1c(C(=O)NCc2ccccc2C(F)(F)F)sc(=O)n1Cc1cccc(C(F)(F)F)c1", "Potency": "inconclusive: 16.4 µM [cytotoxic, partial curve]"}, {"smiles": "CCCC(=O)NC(=S)NNC(=O)c1ccc([N+](=O)[O-])cc1", "Potency": "inconclusive: 16.4 µM [cytotoxic, single point]"}, {"smiles": "Cc1ccc(CSc2nccc(-c3c(C)nc4ccccn34)n2)cc1", "Potency": "active: 18.4 µM"}, {"smiles": "CN(c1ccccc1)c1ccc(/C=C(\\C#N)c2nnc3n2CCCCC3)cc1[N+](=O)[O-]", "Potency": "inconclusive: 6.51 µM [cytotoxic, full curve]"}, {"smiles": "NC(=O)c1cccc(-c2ccnc3c2CC(C(=O)Nc2ccccc2)O3)c1", "note": "(stereo not given)", "Potency": "inactive"}, {"smiles": "Cc1cccc(S(=O)(=O)C(C#N)c2nc3ccccc3nc2N2CC(C)OC(C)C2)c1", "note": "(stereo not given)", "Potency": "inconclusive: 20.6 µM [cytotoxic, partial curve, poor fit]"}, {"smiles": "Cc1ccc(S(=O)(=O)N2CC3(O)CN(C(=O)OC(C)C)N(C(=O)OC(C)C)CC3(OC(=O)Nc3cccs3)C2)cc1", "note": "(stereo not given)", "Potency": "inactive"}, {"smiles": "CCOc1ccc(C2CC(=O)c3c([nH]c(C(=O)OC)c3C)C2)cc1OC", "note": "(stereo not given)", "Potency": "inactive"}, {"smiles": "O=C(Nc1ccc(F)cc1F)c1ccc(-n2cnc3cccnc32)cc1", "Potency": "inconclusive: 23.1 µM [rising, single point]"}, {"smiles": "COc1ccc(CC(=O)NCc2n[nH]c(=S)n2-c2ccc(F)cc2)cc1", "Potency": "inactive"}, {"smiles": "C[C@@H]1[C@H](c2ccccc2)Oc2ccc(Cl)cc2S(=O)(=O)N1CC1CCCN1C(=O)OC(C)(C)C", "note": "(stereo not given in full)", "activity change, negative = cytotoxic": "inconclusive: 6.93%"}, {"smiles": "CCC(C(=O)OCC(=O)c1c(N)n(CC(C)C)c(=O)n(C)c1=O)c1ccccc1", "note": "(stereo not given)", "Potency": "inconclusive: 5.8 µM [cytotoxic, full curve, poor fit]"}, {"smiles": "Cc1ccc(/C=C2\\SC(=S)N(/N=C/c3cc([N+](=O)[O-])ccc3O)C2=O)o1", "Potency": "inactive"}, {"smiles": "COC(=O)c1sc(=S)n(-c2ccccc2OC)c1N", "Potency": "inactive"}, {"smiles": "O=C(/C=C/c1ccc2c(c1)OCO2)NCCS(=O)(=O)N1CCN(c2ccccc2)CC1", "Potency": "inconclusive: 25.9 µM [cytotoxic, partial curve]"}, {"smiles": "N#Cc1c(-n2ncnc2-c2ccccc2Cl)sc2c1CCCCC2", "Potency": "inactive"}, {"smiles": "C=CCN(C(=O)c1csnn1)C(C(=O)NCc1ccc(F)cc1)c1ccc(F)cc1", "note": "(stereo not given)", "activity change, negative = cytotoxic": "inconclusive: 27.4%"}, {"smiles": "O=C(CSc1nc2ccc(Nc3nc(N4CCOCC4)nc(N4CCOCC4)n3)cc2s1)Nc1ccccc1Cl", "Potency": "inconclusive: 29.1 µM [cytotoxic, single point]"}, {"smiles": "Clc1ccc(-c2nc3ncccn3c2Nc2ccc3c(c2)OCCO3)cc1", "Potency": "inconclusive: 23.1 µM [rising, partial curve, poor fit]"}, {"smiles": "C/C(=N\\OCC(=O)OCC(=O)N(Cc1ccccc1)C(C)(C)C)c1ccc2c(c1)OCO2", "Potency": "inactive"}, {"smiles": "CCOC(=O)c1ccc(N2C(=O)c3n[nH]c(-c4cccs4)c3C2c2cccc(O)c2)cc1", "note": "(stereo not given)", "Potency": "inconclusive: 29.1 µM [cytotoxic, single point]"}, {"smiles": "N#Cc1nc(Nc2cc(F)cc(F)c2)c2ncn(CCO)c2n1", "Potency": "active: 14.6 µM"}, {"smiles": "COCCNC(=O)C(=O)N/N=C/c1ccc(C(=O)OC)cc1", "Potency": "inconclusive: 0.82 µM [rising, full curve, poor fit]"}, {"smiles": "CCCCN(Cc1cc2ccccc2[nH]c1=O)S(=O)(=O)c1ccc(C)cc1", "Potency": "inconclusive: 16.4 µM [cytotoxic, single point]"}, {"smiles": "Cc1ccc(Cl)cc1N1CCN(C(=O)c2ccc3nc[nH]c3c2)CC1", "activity change, negative = cytotoxic": "inconclusive: 0%"}, {"smiles": "CC1CCCN(c2ccc([N+](=O)[O-])cc2C(=O)c2ccccc2)C1", "note": "(stereo not given)", "Potency": "inconclusive: 9.2 µM [cytotoxic, partial curve, poor fit]"}, {"smiles": "O=C(c1ccoc1)N1CCN(c2cc(-c3cccnc3)nc3cc(-c4cccc(Cl)c4)nn23)CC1", "Potency": "inconclusive: 25.9 µM [cytotoxic, single point]"}, {"smiles": "C=CCn1c2ccccc2c2nnc(SCCCn3c(=O)[nH]c4ccccc43)nc21", "Potency": "inconclusive: 29.1 µM [cytotoxic, single point]"}, {"smiles": "COc1cc(OC)c(C2=NOC(C(=O)N3CCN(C(=O)c4ccco4)CC3)C2)cc1Cl", "note": "(stereo not given)", "Potency": "inconclusive: 1.46 µM [rising, full curve]"}, {"smiles": "CCOc1cc(C(=O)NCc2ccccc2)ccc1OCC(=O)N1CCOCC1", "Potency": "inconclusive: 0.58 µM [rising, full curve]"}, {"smiles": "Nc1nc(CN2CCCCCC2)nc(Nc2ccccc2)n1", "Potency": "inactive"}, {"smiles": "CC(C)C(=O)Nc1nnc(NC(=S)Nc2ccccc2)s1", "Potency": "inconclusive: 18.4 µM [rising, partial curve, poor fit]"}, {"smiles": "C=CCN(c1ccc(C(=O)Nc2cccc(C)c2)cc1)S(C)(=O)=O", "Potency": "inconclusive: 20.6 µM [rising, single point]"}, {"smiles": "CCOc1nc(OCC)c2[nH]c(C(=O)O)c(Br)c2n1", "Potency": "inactive"}, {"smiles": "COc1ccc(C)cc1S(=O)(=O)Nc1cccc(-c2cn3cccnc3n2)c1", "Potency": "inconclusive: 20.6 µM [cytotoxic, partial curve, poor fit]"}, {"smiles": "O=C(NCCc1ccccc1)C1CCCN(c2ncnc3c2nc2n3CCCCC2)C1", "note": "(stereo not given)", "Potency": "inconclusive: 29.1 µM [cytotoxic, single point]"}, {"smiles": "COc1ccccc1-c1nc2cc3ccccc3cc2nc1-c1ccccc1", "activity change, negative = cytotoxic": "inconclusive: -10.3%"}, {"smiles": "CN1CCN(C(=O)c2ccc3c(c2)N(Cc2cccc(Cl)c2)C(=O)c2ccccc2S3=O)CC1", "note": "(stereo not given)", "activity change, negative = cytotoxic": "inconclusive: -6.18%"}, {"smiles": "Cc1ccc(-c2cc(C(=O)N/N=C/c3c[nH]c4ccccc34)[nH]n2)cc1", "Potency": "active: 5.17 µM"}, {"smiles": "C[C@@H](C(=O)OCC(=O)NCCc1ccc(S(N)(=O)=O)cc1)N1C(=O)C2CCCCC2C1=O", "note": "(stereo not given in full)", "Potency": "inconclusive: 16.4 µM [cytotoxic, single point]"}, {"smiles": "Cc1nc(SCC(=O)N(CC(C)C)C2CCS(=O)(=O)C2)c2c(C)c(C)sc2n1", "note": "(stereo not given)", "Potency": "inconclusive: 29.1 µM [cytotoxic, single point]"}, {"smiles": "CCOCCOC(=O)c1[nH]c2c(c1C)C(=O)CC(c1cccs1)C2", "note": "(stereo not given)", "Potency": "active: 0.92 µM"}, {"smiles": "Oc1c(C(c2ccccc2Cl)N2CCCC2)ccc2cccnc12", "note": "(stereo not given)", "Potency": "active: 13 µM"}, {"smiles": "COc1cc(OC)c(CN2CCCCCCC2)cc1Br", "Potency": "inactive"}, {"smiles": "N#Cc1cnn2ccc(-c3ccc4c(c3)CCC4)nc12", "Potency": "inconclusive: 18.4 µM [cytotoxic, single point]"}, {"smiles": "CCCCC[C@@H](C)N1C[C@H](COCc2ccccc2)Oc2cc(N3CC[C@H](O)C3)ccc2S1(=O)=O", "Potency": "inconclusive: 18.4 µM [cytotoxic, single point]"}, {"smiles": "CCCCCCn1cc(CN2CC(N3CCN(Cc4ccccc4F)CC3)CS2(=O)=O)nn1", "note": "(stereo not given)", "Potency": "inconclusive: 14.6 µM [cytotoxic, single point]"}, {"smiles": "O=C(/C=C/c1ccccc1)NC(NC(=S)Nc1cc(Cl)ccc1Cl)C(Cl)(Cl)Cl", "note": "(stereo not given)", "Potency": "inconclusive: 29.1 µM [cytotoxic, single point]"}, {"smiles": "Cc1ccc(C(=O)N2CCN(c3ccc([N+](=O)[O-])cc3-n3cccc3)CC2)cc1", "Potency": "inconclusive: 29.1 µM [cytotoxic, single point]"}, {"smiles": "CCCN(CCC)C(=O)CSc1nc2n[nH]c(C)c2c(=N)n1-c1ccc(OCC)cc1", "Potency": "inconclusive: 20.6 µM [cytotoxic, single point]"}, {"smiles": "CCCCNc1c(-c2cccc(-c3cc(C(C)=O)cs3)c2)nc2cc(C)ccn12", "Potency": "inconclusive: 29.1 µM [cytotoxic, single point]"}, {"smiles": "Cc1cc(NC(=O)c2ccccc2F)cc(C)c1OCC(=O)N1CCOCC1", "Potency": "inconclusive: 0.206 µM [cytotoxic, full curve]"}, {"smiles": "CC(C)CCNC(=S)Nc1ccc(Br)cc1", "Potency": "inconclusive: 29.1 µM [cytotoxic, single point]"}, {"smiles": "COc1ccc(C(=O)NCCNc2nc3cc(C)cc(C)c3cc2C#N)c(OC)c1", "Potency": "inactive"}, {"smiles": "CCCN(CCC)CCCNC(=O)c1ccc2c(Cl)c3c(nc2c1)CCC3", "Potency": "inactive"}, {"smiles": "O=C(O)c1ccc(N2C(=O)/C(=C/c3ccc(-c4ccc([N+](=O)[O-])cc4)o3)C=C2c2ccccc2)cc1", "Potency": "inconclusive: 18.4 µM [cytotoxic, single point]"}, {"smiles": "Cc1ccc(-n2c(Cc3ccccc3)n[nH]c2=S)c(C)c1", "Potency": "inactive"}, {"smiles": "O=C(CCl)N1c2ccccc2SCC1c1ccccc1", "note": "(stereo not given)", "Potency": "inconclusive: 23.1 µM [cytotoxic, single point]"}, {"smiles": "CCCOc1ccc(OC(=O)c2ccc(Br)o2)cc1", "activity change, negative = cytotoxic": "inconclusive: 31.1%"}, {"smiles": "Cc1cc2cc3c(cc2nc1SCC(=O)N1CCOCC1)OCO3", "Potency": "inactive"}, {"smiles": "CCOc1ccc(NC(=O)CSc2nc3ccccc3nc2N2CCOCC2)cc1", "Potency": "inconclusive: 23.1 µM [cytotoxic, partial curve, poor fit]"}, {"smiles": "COc1cc(-c2cc3nc(NCc4ccco4)ccn3n2)cc(OC)c1OC", "Potency": "inactive"}, {"smiles": "CCc1nc2c(OCc3ccccc3C(=O)OC)cccn2c1N(C)C(=O)c1cccc(OC)c1", "Potency": "inconclusive: 0.146 µM [rising, full curve]"}, {"smiles": "O=C(c1cn(-c2ccccc2)nc1-c1cccs1)N1CCN(c2ccccn2)CC1", "Potency": "inconclusive: 29.1 µM [cytotoxic, single point]"}]}]}
